Experimental data: PubChem BioAssay AID588590 (National Center for Advancing Translational Sciences (NCATS), 2011)
Out of some 390,000 compounds screened, about 4,000 (1%) were called active. Inconclusive means that the source gave no clear call. Such entries were picked first, then a sample of the others. Calls come from the whole dose curve; as a rule, active = well fitted inhibition curve with a large enough effect; inconclusive = small, poorly fitted or top-dose-only effect, or another doubt; inactive = no such curve, though single readings can be large or run the other way. Potencies beside an inconclusive call are fits to weak or partial responses and may not hold up.

By UniProt entry, the sequences of proteins in these tests, tags left out. Where a name states a change or a piece, a line headed by the entry shows the natural chain unless it says otherwise.
UniProt Q9UNA4: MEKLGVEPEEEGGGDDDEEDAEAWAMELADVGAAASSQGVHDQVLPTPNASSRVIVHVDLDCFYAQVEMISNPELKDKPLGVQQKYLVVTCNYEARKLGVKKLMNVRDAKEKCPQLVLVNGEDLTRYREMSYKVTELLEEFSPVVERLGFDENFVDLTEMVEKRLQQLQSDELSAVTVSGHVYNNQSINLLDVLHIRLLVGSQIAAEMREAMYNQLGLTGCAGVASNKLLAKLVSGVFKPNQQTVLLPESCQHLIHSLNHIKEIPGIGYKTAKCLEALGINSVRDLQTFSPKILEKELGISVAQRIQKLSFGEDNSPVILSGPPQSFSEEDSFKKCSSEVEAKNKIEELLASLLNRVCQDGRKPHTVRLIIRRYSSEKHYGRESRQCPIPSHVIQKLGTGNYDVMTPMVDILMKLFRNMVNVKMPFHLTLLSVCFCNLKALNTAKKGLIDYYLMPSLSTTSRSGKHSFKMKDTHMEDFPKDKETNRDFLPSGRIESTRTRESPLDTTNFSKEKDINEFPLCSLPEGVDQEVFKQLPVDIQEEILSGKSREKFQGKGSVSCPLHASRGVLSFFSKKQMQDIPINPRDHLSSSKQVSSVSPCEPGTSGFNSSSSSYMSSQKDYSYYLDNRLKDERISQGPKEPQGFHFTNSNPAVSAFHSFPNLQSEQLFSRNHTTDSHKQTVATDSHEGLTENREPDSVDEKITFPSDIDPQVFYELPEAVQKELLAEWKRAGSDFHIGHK

Each molecule was assayed against DNA polymerase iota (Homo sapiens) (UniProt Q9UNA4) (assay: qHTS for Inhibitors of Polymerase Iota). Details: Pol iota fluorescent replication assay, 10 min; series mostly up to 115 µM; activity, negative = inhibition: at the top concentration.
Method in brief: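 Fluorescent replication assay read twice, at 0 min and 10 min after adding 50 nM (final) substrate. Enzyme (10 nM) and compounds were first incubated 15 min at room temperature; enzyme-free buffer wells were negative controls.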
Potency is the fitted concentration of half-maximal effect.

Compound	Potency	activity, negative = inhibition
N#Cc1c(Nc2ccc(Cl)cc2)s[nH]c1=O	inconclusive: 31.6 µM [inhibitor, partial curve, poor fit]	
O=C(O)c1ccc(/C=N/NC(=O)c2cc3ccccc3cc2O)cc1	active: 15.8 µM	
O=C(Nc1ccccc1C(F)(F)F)c1nc(S(=O)(=O)Cc2ccccc2F)ncc1Cl		inactive: -5.98%
C#CCOCCOCCOCCNc1nc(N2CCOCC2)nc(N2CCN(C(=O)[C@H](CCCCN)n3cc([C@@H](N)CO)nn3)CC2)n1	inconclusive: 14.1 µM [inhibitor, partial curve, poor fit]	
CC(C)C[C@@H](CN)NC(=O)c1nc[nH]c1C(=O)N[C@@H](Cc1ccccc1)C(=O)CNC[C@H](C)NC(=O)c1nc[nH]c1C(=O)N[C@@H](CC(=O)O)C(=O)O	inconclusive: 11.2 µM [inhibitor, full curve]	
COc1ccccc1NC(=O)Nc1ccnn1C1CCN(C(=O)c2ccccn2)CC1		inactive: 25.2%
COc1cc(C2/C(=C(\O)c3ccc4c(c3)OCCO4)C(=O)C(=O)N2CCN2CCOCC2)cc(OC)c1OC (stereo not given)		inactive: 13.5%
COCCNC(=O)C(c1ccco1)N(C(=O)Cn1nnc2ccccc21)c1cc(C)ccc1C (stereo not given)	inconclusive: 35.5 µM [inhibitor, single point]	
CNC(=O)c1nnn(Cc2ccccc2)c1NC(=O)C(F)(F)F	inconclusive: 35.5 µM [inhibitor, single point]	
O=C1CCC(C(=O)Nc2ccccc2N2CCCC2)=NN1	inconclusive: 63.1 µM [inhibitor, partial curve, poor fit]	
C/C(CC1CC2=C(CC1(C)C)C(C)(C)CCC2)=N\NC(N)=S (stereo not given)	inconclusive: 44.7 µM [inhibitor, single point]	
CC(C)Cn1c(/C=C/c2ccco2)nc2ccccc21		inactive: 20.2%
O=C(NCCc1nc2ccccc2[nH]1)/C(=C/c1ccc2c(c1)OCO2)NC(=O)c1ccc(Cl)cc1Cl	inconclusive: 141 µM [inhibitor, partial curve, poor fit]	
COc1cccc(C2C(C(=O)/C=C/c3ccco3)=C(O)C(=O)N2CCN2CCOCC2)c1 (stereo not given)	inconclusive: 17.8 µM [inhibitor, full curve, poor fit]	
COCCN(C(=O)COC(=O)c1cc2c(s1)CCCC2)c1c(N)n(Cc2ccccc2)c(=O)[nH]c1=O	active: 50.1 µM	
CCc1nnc(NC(=O)c2ccc3ccccc3n2)s1	inconclusive: 22.4 µM [inhibitor, partial curve, poor fit]	
Cc1cc(C(F)(F)F)c(C#N)c(SCC(=O)Nc2nc3cc(Br)ccc3s2)n1		inactive: 18.9%
O=C(CCC(=O)N1CCN(c2ccccn2)CC1)c1ccc(Cl)s1	inconclusive: 79.4 µM [inhibitor, partial curve]	
N#CCCN(C(=O)COc1ccc(F)cc1Br)c1ccccc1F		inactive: 16.1%
O=C(COC(=O)CCC(=O)c1ccc(F)cc1)Nc1ccc(N2CCOCC2)cc1	inconclusive: 100 µM [inhibitor, partial curve, poor fit]	
Cc1c(N2C(=O)c3ccc4c5c(ccc(c35)C2=O)CC4)c(=O)n(-c2ccccc2)n1C	active: 5.62 µM	
CCC(C)(C)C1CCc2[nH]nc(C(=O)NCCCNC(=O)OC(C)(C)C)c2C1 (stereo not given)	inconclusive: 39.8 µM [inhibitor, single point]	

Compound	Potency	activity, negative = inhibition
COc1ccc(NC(=O)c2ccc(-c3ccc(-c4noc(C)n4)cc3C)cc2)cc1N1CCN(C)CC1	inconclusive: 14.1 µM [inhibitor, partial curve]	
CCCCCOc1ccc(Cn2c(=O)oc3ccc(C)cc32)cc1OC		inactive: -8.43%
CCN1CCN(C(c2ccc(OC)cc2)c2nnnn2Cc2ccc3c(c2)OCO3)CC1 (stereo not given)	inconclusive: 39.8 µM [inhibitor, single point]	
Cc1ccc(C(=O)Nc2nnc(S(=O)(=O)N3CCCCCC3)s2)cc1	inconclusive: 15.8 µM [inhibitor, partial curve, poor fit]	
CC(=O)Nc1ccc(-c2nnc3n(Cc4ccc(C)cc4)c(=O)c4ccccc4n23)cc1		inactive: 8.19%
CC(=O)NC1Sc2ccccc2N=C1c1ccccc1 (stereo not given)	inconclusive: 39.8 µM [inhibitor, partial curve, poor fit]	
CC(C)Nc1nnc(SCC(=O)N2CCN(C(=O)c3ccco3)CC2)s1	inconclusive: 89.1 µM [inhibitor, partial curve, poor fit]	
COc1ccc(C(=O)c2ccc(OC)c(N)c2)cc1N		inactive: 12.6%
CCc1cc(-c2n[nH]c(C)c2-c2ccccc2Cl)c(O)cc1OC	active: 89.1 µM	
O=C(O)C1CCc2sc3[nH]c(=S)n(-c4ccccc4)c(=O)c3c21 (stereo not given)	inconclusive: 14.1 µM [inhibitor, partial curve]	
COc1ccc(CNC(=O)Cn2c(=O)c3cccn3c3ccccc32)cc1	inconclusive: 100 µM [inhibitor, partial curve, poor fit]	
Cc1ccc(C2CC(=O)N3CN(c4ccc(Br)cc4)CSC3=C2C#N)o1 (stereo not given)	inconclusive: 2.82 µM [inhibitor, full curve]	
CSc1nc(-c2ccccc2Cl)nc2c1Cc1c(CO)cnc(C)c1O2		inactive: -7.6%
CCC(=O)Nc1ccc(-c2nnc(SCc3ccccc3)n2C)cc1		inactive: -27.6%
Cc1c(C(=O)OCC(=O)N(C)CC(=O)Nc2ccc(F)cc2)oc2ccccc12	inconclusive: 1 µM [inhibitor, full curve, poor fit]	
COc1cc(OC)c2cc(C(=O)N/N=C/c3ccccc3O)[nH]c2c1	inconclusive: 39.8 µM [inhibitor, partial curve, poor fit]	
COC(=O)[C@]1(C)N[C@H](CN(C)C(=O)c2ccc(F)cc2)[C@@H]2C(=O)N(C)C(=O)[C@@H]21	inconclusive: 12.6 µM [inhibitor, partial curve, poor fit]	
C=CCn1c(=S)[nH]c2sc3c(c2c1=O)CCCC3	inconclusive: 44.7 µM [inhibitor, partial curve, poor fit]	
COc1ccc(CCNC(=O)C2CCCN(S(C)(=O)=O)C2)cc1 (stereo not given)	inconclusive: 8.91 µM [inhibitor, single point]	
Fc1ccc(-c2cnc(-c3cccs3)o2)cc1	inconclusive: 39.8 µM [inhibitor, single point]	
Cc1ccc(C)n1-c1sc2c(c1C(=O)O)CCCC2	inconclusive: 14.1 µM [inhibitor, full curve, poor fit]	
N#Cc1nc(N)nc(N(c2ccccc2)c2ccccc2)n1	inconclusive: 39.8 µM [inhibitor, single point]	

Reprinted at random: 4 compounds from above
Compound	Potency	activity, negative = inhibition
COc1cccc(C2C(C(=O)/C=C/c3ccco3)=C(O)C(=O)N2CCN2CCOCC2)c1 (stereo not given)	inconclusive: 17.8 µM [inhibitor, full curve, poor fit]	
COc1ccc(CNC(=O)Cn2c(=O)c3cccn3c3ccccc32)cc1	inconclusive: 100 µM [inhibitor, partial curve, poor fit]	
CCc1cc(-c2n[nH]c(C)c2-c2ccccc2Cl)c(O)cc1OC	active: 89.1 µM	
O=C(O)c1ccc(/C=N/NC(=O)c2cc3ccccc3cc2O)cc1	active: 15.8 µM	

Additional structures

Compound	Potency	activity, negative = inhibition
N#CC1=C2SCN(C3CCCCC3)CN2C(=O)CC1c1ccc(Br)cc1 (stereo not given)	active: 20 µM	
O=C(NC1CCCCC1)C(c1ccccc1)N(Cc1ccc2c(c1)OCO2)C(=O)c1cnsn1 (stereo not given)	inconclusive: 15.8 µM [inhibitor, full curve, poor fit]	
COC(=O)c1ccccc1NC(=O)COC(=O)/C=C/c1ccco1		inactive: 29.5%
CCOc1ccccc1C(=O)Nc1cc(=O)n(C)c(=O)n1C	inconclusive: 79.4 µM [inhibitor, partial curve, poor fit]	
O=C(Cc1ccc(F)cc1)NO		inactive: 21.5%
COc1ccccc1CCC(=O)OCC(=O)NC1CC1	inconclusive: 28.2 µM [inhibitor, single point]	
Cc1cc(N2C(=O)C(O)=C(C(=O)c3ccco3)C2c2ccc([N+](=O)[O-])cc2)no1 (stereo not given)	inconclusive: 39.8 µM [inhibitor, partial curve, poor fit]	
CC(O)C(NC=C1C(=O)OC(C)(C)OC1=O)C(=O)O (stereo not given)	inconclusive: 100 µM [inhibitor, single point]	
O=C(COC(=O)c1ccc(F)c(S(=O)(=O)N2CCOCC2)c1)NCc1ccco1	inconclusive: 79.4 µM [inhibitor, partial curve]	
CCC1(C)Cc2ccccc2-c2c1c(=O)n(-c1ccc(C)cc1)c1nnnn21 (stereo not given)	inconclusive: 79.4 µM [inhibitor, single point]	
Cc1noc(C)c1COC(=O)c1ccc2c(c1)OCO2	inconclusive: 39.8 µM [inhibitor, single point]	
CS(=O)(=O)c1ccc(C(=O)OCC(=O)NNC(=O)COc2ccc(Cl)cc2)cc1	active: 79.4 µM	
N#CCc1nc2ccc(S(=O)(=O)N3CCOCC3)cc2s1	inconclusive: 4.47 µM [inhibitor, full curve, poor fit]	
CCn1c(SCc2ccc(Cl)cc2)nnc1-c1ccccc1	inconclusive: 31.6 µM [inhibitor, single point]	
COc1ccc(NC(=O)c2nnn(CC(=O)Nc3c(C)cc(C)cc3C)c2N)cc1OC		inactive: 33.8%
C#CCOCCOCCOCCNc1nc(N2CCN(C(=O)[C@H](C(C)C)n3cc(CCO)nn3)CC2)nc(N2CCN(C(=O)[C@H](CCCCN)n3cc(CCCC)nn3)CC2)n1	inconclusive: 25.1 µM [inhibitor, single point]	
Cc1ccc2nc(Cl)c3cc(C(=O)NCCCN4CCCC4)sc3c2c1		inactive: -12.5%
O=C1CC(c2ccco2)Cc2nc(N3CCc4ccccc4C3)ncc21 (stereo not given)	inconclusive: 12.6 µM [inhibitor, partial curve, poor fit]	
O=C(COc1ccccc1C(=O)Nc1ccccc1)Nc1ccc2ccccc2c1	inconclusive: 89.1 µM [inhibitor, single point]	
CCOCCCNC(=O)/C(C#N)=C/c1cc(Br)c(O)c(Br)c1	inconclusive: 31.6 µM [inhibitor, full curve]	
O=C(C1CCCN(c2ncnc3c2nc2n3CCCCC2)C1)N1CCCCC1 (stereo not given)		inactive: 12.5%

Complete entries from above.
CCn1c(SCc2ccc(Cl)cc2)nnc1-c1ccccc1 in the list: Potency: inconclusive: 31.6 µM [inhibitor, single point]
O=C(COC(=O)c1ccc(F)c(S(=O)(=O)N2CCOCC2)c1)NCc1ccco1 in the list: Potency: inconclusive: 79.4 µM [inhibitor, partial curve]
